Some results were stated once for a whole list of compounds, not compound by compound.
Tests used:
[1] = target: K-RasG12V (Homo sapiens, UniProt P01116+P62937, G12V); experiment: Disruption of BRAF RBD interaction with K-Ras (TR-FRET / MOA assay), K-RasG12V; assay type: biochemical; settings: TR-FRET with cyclophilin A and GST-BRAF RBD, read-out: IC50 with respect to K-RasG12V (disruption of BRAF RBD interaction)
[2] = system: Capan-1 (K-Ras G12V); experiment: CellTiter-Glo cell viability assay, Capan-1; assay type: cell-based, human; settings: 5-day treatment, Capan-1 versus A375

Amino acid sequences for entries named in this document (tags omitted). A change or cut given only in a name is not applied to a line headed by its entry. Residues count along the entry.
UniProt P01116, 1-188 isoform P01116-2 G12V: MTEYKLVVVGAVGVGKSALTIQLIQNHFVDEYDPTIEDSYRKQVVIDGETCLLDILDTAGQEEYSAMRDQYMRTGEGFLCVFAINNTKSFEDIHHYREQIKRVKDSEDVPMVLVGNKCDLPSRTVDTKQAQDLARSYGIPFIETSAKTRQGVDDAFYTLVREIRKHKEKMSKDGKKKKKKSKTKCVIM
UniProt P62937, whole entry: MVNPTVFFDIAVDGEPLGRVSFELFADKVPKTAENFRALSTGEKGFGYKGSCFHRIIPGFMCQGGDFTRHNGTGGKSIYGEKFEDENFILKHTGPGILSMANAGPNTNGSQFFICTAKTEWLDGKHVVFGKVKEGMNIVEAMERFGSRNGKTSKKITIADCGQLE

| Structure (SMILES) | IC50 [1] [nM] | decrease in cell viability with respect to KRAS G12V (Capan-1) versus wild-type KRAS (A375) [2] |
| --- | --- | --- |
| CO[C@@H](C)c1ncc(C2CCN(C3CC3)CC2)cc1-c1c2c3cc(ccc3n1C1COC1)-c1csc(n1)[C@@H](N1CC(C)(C)C1)[C@H](NC(=O)[C@H]1[C@H](C)[C@@H]1C)C(=O)N1CCCC(N1)C(=O)OCC(C)(C)C2 (mixture of isomers) [Example A299] | < 1000 | greater decrease in cell viability |
| CO[C@@H](C)c1ncc(C2CCN(C3CC3)CC2)cc1-c1c2c3cc(ccc3n1C1COC1)-c1csc(n1)[C@@H](N1CC(C)C1)[C@H](NC(=O)[C@H]1[C@H](C)[C@@H]1C)C(=O)N1CCCC(N1)C(=O)OCC(C)(C)C2 (mixture of isomers) [Example A300] | < 1000 | greater decrease in cell viability |
| CO[C@@H](C)c1ncccc1-c1c2c3cc(ccc3n1C1COC1)-c1csc(n1)[C@@H](N1CC3(COC3)C1)[C@H](NC(=O)C13CC(C1)[C@H](C)O3)C(=O)N1CC3CC(C3)(N1)C(=O)OCC(C)(C)C2 (racemic) [Example A301] | < 1000 | greater decrease in cell viability |
| CO[C@@H](C)c1ncc(N2CCN(C3CC3)CC2)cc1-c1c2c3cc(ccc3n1CCO[C@H]1CCOC(C)(C)C1)-c1csc(n1)[C@@H](N1CC3CC1C3)[C@H](NC(=O)C13CC(C1)[C@H](C)O3)C(=O)N1CCCC(N1)C(=O)OCC(C)(C)C2 (mixture of isomers) [Example A302] | < 1000 | greater decrease in cell viability |
| CO[C@@H](C)c1ncc(N2CCN(C3CC3)CC2)cc1-c1c2c3cc(ccc3n1CCO[C@H]1CCOC(C)(C)C1)-c1csc(n1)[C@@H](N1CC3CC1C3)[C@H](NC(=O)[C@@H]1[C@@H](C)[C@H]1c1ccncn1)C(=O)N1CC3CC(C3)(N1)C(=O)OCC(C)(C)C2 (racemic) [Example A303] | < 1000 | greater decrease in cell viability |
| CO[C@@H](C)c1ncc(N2CCN(C3CC3)CC2)cc1-c1c2c3cc(ccc3n1CCO[C@H]1CCOC(C)(C)C1)-c1csc(n1)[C@@H](N1CCCC1)[C@H](NC(=O)N1CC[C@H]1C)C(=O)N1CC3CC(C3)(N1)C(=O)OCC(C)(C)C2 (racemic) [Example A304] | < 1000 | greater decrease in cell viability |
| CO[C@@H](C)c1ncc(N2CCN(C3CC3)CC2)cc1-c1c2c3cc(ccc3n1CCO[C@H]1CCOC(C)(C)C1)-c1csc(n1)[C@@H](N1CCCC1)[C@H](NC(=O)C13CC(C1)[C@H](C)O3)C(=O)N1CC3CC(C3)(N1)C(=O)OCC(C)(C)C2 (racemic) [Example A305] | < 1000 | greater decrease in cell viability |
| COC1CN([C@@H]2c3nc(cs3)-c3ccc4c(c3)c(c(-c3cc(N5CCN(C6CC6)CC5)cnc3[C@H](C)OC)n4CCO[C@H]3CCOC(C)(C)C3)CC(C)(C)COC(=O)C34CC(CN(N3)C(=O)[C@H]2NC(=O)[C@@H]2OC[C@@H]2C)C4)C1 (racemic) [Example A306] | < 1000 | greater decrease in cell viability |
| COC1CN([C@@H]2c3nc(cs3)-c3ccc4c(c3)c(c(-c3cc(N5CCN(C6CC6)CC5)cnc3[C@H](C)OC)n4CCO[C@H]3CCOC(C)(C)C3)CC(C)(C)COC(=O)C34CC(CN(N3)C(=O)[C@H]2NC(=O)[C@H]2OC[C@@H]2C)C4)C1 (racemic) [Example A307] | < 1000 | greater decrease in cell viability |
| CO[C@@H](C)c1ncc(N2CCN(C3CC3)CC2)cc1-c1c2c3cc(ccc3n1CCO[C@H]1CCOC(C)(C)C1)-c1csc(n1)[C@@H](N1CC(C)(C)C1)[C@H](NC(=O)[C@H]1[C@H](C)[C@@H]1C)C(=O)N1CCC[C@H](N1)C(=O)OCC(C)(C)C2 (racemic) [Example A308] | < 1000 | greater decrease in cell viability |
| COC1CN([C@@H]2c3nc(cs3)-c3ccc4c(c3)c(c(-c3cc(N5CCN(C6CC6)CC5)cnc3[C@H](C)OC)n4CCO[C@H]3CCOC(C)(C)C3)CC(C)(C)COC(=O)[C@@H]3CCCN(N3)C(=O)[C@H]2NC(=O)[C@@H]2OC[C@@H]2C)C1 (racemic) [Example A310] | < 1000 | greater decrease in cell viability |
| COC1CN([C@@H]2c3nc(cs3)-c3ccc4c(c3)c(c(-c3cc(N5CCN(C6CC6)CC5)cnc3[C@H](C)OC)n4CCO[C@H]3CCOC(C)(C)C3)CC(C)(C)COC(=O)[C@@H]3CCCN(N3)C(=O)[C@H]2NC(=O)[C@H]2OC[C@@H]2C)C1 (racemic) [Example A311] | < 1000 | greater decrease in cell viability |
| CO[C@@H](C)c1ncc(N2CCN(C3CC3)CC2)cc1-c1c2c3cc(ccc3n1CCOC1CCOCC1)-c1csc(n1)[C@@H](N1CCOCC1)[C@H](NC(=O)[C@@H]1C[C@@H](C)O1)C(=O)N1CCC[C@H](N1)C(=O)OCC(C)(C)C2 (racemic) [Example A312] | < 1000 | greater decrease in cell viability |
| CO[C@@H](C)c1ncc([C@H]2CCN(C)C2)cc1-c1c2c3cc(ccc3n1C1COC1)-c1csc(n1)[C@@H](N1CCCC1)[C@H](NC(=O)C13CC(CO1)C3)C(=O)N1CCC[C@H](N1)C(=O)OCC(C)(C)C2 (racemic) [Example A313] | < 1000 | greater decrease in cell viability |
| CO[C@@H](C)c1ncc(N2CCN(C3CC3)CC2)cc1-c1c2c3cc(ccc3n1CCO[C@H]1CCOC(C)(C)C1)-c1csc(n1)[C@@H](N1CC(C)C1)[C@H](NC(=O)[C@H]1OC[C@@H]1C)C(=O)N1CCC[C@H](N1)C(=O)OCC(C)(C)C2 (racemic) [Example A314] | < 1000 | greater decrease in cell viability |
| C[C@@H]1[C@H](C)[C@H]1C(=O)N[C@@H]1C(=O)N2CCC[C@H](N2)C(=O)OCC(C)(C)Cc2c3n(c4ccc(cc24)-c2csc(n2)[C@H]1N1CC2(COC2)C1)CCOCCO[C@@H](C)c1ncccc1-3 (racemic) [Example A315] | < 1000 | greater decrease in cell viability |
| CO[C@@H](C)c1ncc(N2CCN(C3CC3)CC2)cc1-c1c2c3cc(ccc3n1CCO[C@H]1CCOC(C)(C)C1)-c1coc(n1)[C@@H](N1CCCC1)[C@H](NC(=O)[C@H]1[C@H](C)[C@@H]1C)C(=O)N1N[C@H](C(=O)OCC(C)(C)C2)C2CC1C2 (racemic) [Example A316] | < 1000 | greater decrease in cell viability |
| COC1CN([C@@H]2c3nc(cs3)-c3ccc4c(c3)c(c(-c3cc(N5CCN(C6CC6)CC5)cnc3[C@H](C)OC)n4CCO[C@H]3CCOC(C)(C)C3)CC(C)(C)COC(=O)[C@H]3NN(C(=O)[C@H]2NC(=O)[C@H]2OC[C@@H]2C)C2CC3C2)C1 (racemic) [Example A317] | < 1000 | greater decrease in cell viability |
| COC1CN([C@@H]2c3nc(cs3)-c3ccc4c(c3)c(c(-c3cc(N5CCN(C6CC6)CC5)cnc3[C@H](C)OC)n4CCO[C@H]3CCOC(C)(C)C3)CC(C)(C)COC(=O)[C@H]3NN(C(=O)[C@H]2NC(=O)[C@@H]2OC[C@@H]2C)C2CC3C2)C1 (racemic) [Example A318] | < 1000 | greater decrease in cell viability |
| COC1CN([C@@H]2c3nc(cs3)-c3ccc4c(c3)c(c(-c3cc(N5CCN(C6CC6)CC5)cnc3[C@H](C)OC)n4CCO[C@H]3CCOC(C)(C)C3)CC(C)(C)COC(=O)C34CC(CN(N3)C(=O)[C@H]2NC(=O)C23CC(C2)[C@H](C)O3)C4)C1 (racemic) [Example A319] | < 1000 | greater decrease in cell viability |
| CO[C@@H](C)c1ncc(N2CCN(C3CC3)CC2)cc1-c1c2c3cc(ccc3n1CCO[C@H]1CCOC(C)(C)C1)-c1csc(n1)[C@@H](N1CC(C)C1)[C@H](NC(=O)[C@@H]1OC[C@@H]1C)C(=O)N1CCC[C@H](N1)C(=O)OCC(C)(C)C2 (racemic) [Example A320] | < 1000 | greater decrease in cell viability |
| CO[C@@H](C)c1ncc(N2CCN(C3CC3)CC2)cc1-c1c2c3cc(ccc3n1CCO[C@H]1CCOC(C)(C)C1)-c1csc(n1)[C@@H](N1CCCC1)[C@H](NC(=O)[C@H]1OC[C@@H]1C)C(=O)N1N[C@H](C(=O)OCC(C)(C)C2)C2CC1C2 (racemic) [Example A321] | < 1000 | greater decrease in cell viability |
| CO[C@@H](C)c1ncc(N2CCN(C3CC3)CC2)cc1-c1c2c3cc(ccc3n1CCO[C@H]1CCOC(C)(C)C1)-c1csc(n1)[C@@H](N1CCCC1)[C@H](NC(=O)[C@@H]1OC[C@@H]1C)C(=O)N1N[C@H](C(=O)OCC(C)(C)C2)C2CC1C2 (racemic) [Example A322] | < 1000 | greater decrease in cell viability |
| CO[C@@H](C)c1ncccc1-c1c2c3cc(ccc3n1CCO[C@H]1CCOC(C)(C)C1)-c1csc(n1)[C@@H](N1CC3(COC3)C1)[C@H](NC(=O)[C@@H]1[C@@H](C)[C@H]1[C@H]1CCCO1)C(=O)N1CC3CC(C3)(N1)C(=O)OCC(C)(C)C2 (racemic) [Example A323] | < 1000 | greater decrease in cell viability |
| C[C@@H]1OCCOCCn2c(c3c4cc(ccc42)-c2csc(n2)[C@@H](N2CC4(COC4)C2)[C@H](NC(=O)C24CC(C2)[C@H](C)O4)C(=O)N2N[C@H](C(=O)OCC(C)(C)C3)C3CC2C3)-c2cccnc21 (racemic) [Example A324] | < 1000 | greater decrease in cell viability |
